The source of these data is publication PMC3743553 (Journal of child neurology, 2012).

One series concerns YG8R mouse. The note with it: cited from earlier work.
For series [1] the following is noted: rat; cited from earlier work.
Another series relates to FXN messenger RNA. In words: FXN messenger RNA by qRT-PCR in peripheral blood mononuclear cells. In kind it is cell-based, human. The note with it: 10 μM, 48 hours. On the technique in general: In qPCR the cycle at which signal appears reflects the starting amount.

For the molecule `Cc1ccc(C(=O)NCCCCCC(=O)Nc2ccccc2N)cc1` [compound 109], in the series with YG8R mouse, the “acetylation of specific histone residues at the FXN locus” value was “significantly increased”; the “brain aconitase enzyme activity” value is listed as “significant increases”; the “frataxin protein expression in brain tissue” value is reported as “significantly increased”; the “global histone H3 and H4 acetylation of brain tissue” value is “increased”. Also, the “neuronal pathology of the dorsal root ganglia” value in the series with YG8R mouse is “reduction”. In the series with YG8R mouse (long-term treatment), the locomotor activity result is given as “increased” and the motor coordination result is on record as “improvement”. In addition, in series [1], the “brain penetration (brain/plasma ratio at tmax)” value is 0.15. For the same molecule, in the series with FXN messenger RNA (peripheral blood mononuclear cells from affected individuals), the “FXN messenger RNA, cells from patients with Friedreich ataxia” value is listed as “significant increases”. In addition, the “FXN messenger RNA, wild-type alleles in cells from unaffected individuals” value with FXN messenger RNA (peripheral blood mononuclear cells from unaffected individuals) was “only a very small effect”.
